The data set is described as follows: Antigen EIA microplate assay for determination of progesterone concentration. The settings on record: for progesterone concentration range detected: phosphate buffer and progesterone-spiked serum samples; for lowest progesterone concentration detected: serum samples. Also on record: species or system dog.

The chains behind the UniProt entries cited, without tags or fusion partners. Where a name states a change or a piece, a line headed by the entry shows the natural chain unless it says otherwise.
UniProt P02701: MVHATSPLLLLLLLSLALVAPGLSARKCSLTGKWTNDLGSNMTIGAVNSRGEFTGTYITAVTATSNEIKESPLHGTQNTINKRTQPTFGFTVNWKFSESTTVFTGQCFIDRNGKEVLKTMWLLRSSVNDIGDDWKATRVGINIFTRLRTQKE

B1: sbAvd-2: antidin with RMNH at 13-16 and ATVN at positions 35-38; from AvLib-3 (protein, UniProt P02701 25-152, looked up, variant D13R L14M G15N S16H T35A A36T T38N)
Avidin: ARKCSLTGKWTNRMNHNMTIGAVNSRGEFTGTYIATVNATSNEIKESPLHGTQNTINKRTQPTFGFTVNWKFSESTTVFTGQCFIDRNGKEVLKTMWLLRSSVNDIGDDWKATRVGINIFTRLRTQKE
Take B1: the “progesterone concentration range detected” value lay in the range of 31.3 to 500 ng/mL and the “lowest progesterone concentration detected” value is given as ~ 30 ng/ml.

B2: sbAvd-7: antidin with RMNH at 13-16, ASLN at 35-38 and T77A; from AvLib-4, progesterone panning (protein)
chain: ARKCSLTGKWTNRMNHNMTIGAVNSRGEFTGTYIASLNATSNEIKESPLHGTQNTINKRTQPTFGFTVNWKFSESTAVFTGQCFIDRNGKEVLKTMWLLRSSVNDIGDDWKATRVGINIFTRLRTQKE
modifications: left off: 6xHis, C-terminal, state not stated
notes: antidin with RMNH at 13-16, ASLN at 35-38 and T77A; from AvLib-4, progesterone panning
With B2, the “progesterone concentration range detected” value lay within 31.3 to 500 ng/mL and the “lowest progesterone concentration detected” value is on record as ~ 30 ng/ml.

The record behind these values is publication PMC6382169, “Molecular features of steroid-binding antidins and their use for assaying serum progesterone” (PLoS ONE, 2019).
